According to patent US20250201957A1, “SEPARATION RECOVERY METHOD OF METAL IONS AND ACIDIC METAL EXTRACTANT” (FUJIFILM Corporation, priority 2022, published 2025):

Tests used:
[1] = Wet (solvent) extraction of metal ions from water phase W1 into kerosine oil phase containing the metal extractant; conditions: for Selection Ratio: W1 (Co, Ni), maximum amount of metal ions extracted (ppm) divided by total amount of other metal ions extracted, shown as 100 where other ions were not extracted; for Extracted Metal Ions Kind / Extracted Metal Ions Maximum Amount Extracted: water phase W1 (Co, Ni); for metal ions of aqueous solution (W1) extracted to the oil phase: water phase W1
[2] = Wet (solvent) extraction of metal ions from water phase W3 into kerosine oil phase containing the metal extractant
[3] = Wet (solvent) extraction of metal ions from water phase W2 into kerosine oil phase containing the metal extractant; conditions: for Selection Ratio: W2 (Rh, Pd), maximum amount of metal ions extracted (ppm) divided by total amount of other metal ions extracted; for extraction of the metal ions extracted in the maximum amount (Rh ions) from the water phase to the oil phase: water phase W2; for Metal Ion Concentration in Water Phase after Extraction (ppm) Pd / Metal Ion Concentration in Water Phase after Extraction (ppm) Rh: water phase W2: Rh 15,000 ppm and Pd 15,000 ppm before extraction, oil phase 310 mM extractant in kerosine, 25° C., mixing amount 1.30, ICP-OES
[4] = water phase W3: Co 15,000 ppm and Mn 15,000 ppm before extraction, oil phase 310 mM extractant in kerosine, pH during mixing 8.8, mixing amount 0.70, ICP-OES

## CCCCC(CC)COP(=O)(O)CCCP(=O)(O)OCC(CC)CCCC (centres unmarked) [E-1]
[1]
  Selection Ratio: 2.0
  Extracted Metal Ions Kind: Co, Ni
  Extracted Metal Ions Maximum Amount Extracted: Co
[2]; W3 (Co, Mn), maximum amount of metal ions extracted (ppm) divided by total amount of other metal ions extracted
  Selection Ratio: 1.0
[2]; water phase W3 (Co, Mn)
  Extracted Metal Ions Kind: Co, Mn
  Extracted Metal Ions Maximum Amount Extracted: Co
[2]; [4]
  Metal Ion Concentration in Water Phase after Extraction (ppm) Co: 1,000 ppm
  Metal Ion Concentration in Water Phase after Extraction (ppm) Mn: 1,500 ppm

## CCCCC(CC)COP(=O)(O)CP(=O)(O)OCC(CC)CCCC (centres unmarked) [E-2]
[1]
  Selection Ratio: 30
  Extracted Metal Ions Kind: Co, Ni
  Extracted Metal Ions Maximum Amount Extracted: Co
[3]
  Selection Ratio: 15
  extraction of the metal ions extracted in the maximum amount (Rh ions) from the water phase to the oil phase: substantially in the entire amount
  Metal Ion Concentration in Water Phase after Extraction (ppm) Pd: 14,000 ppm
  Metal Ion Concentration in Water Phase after Extraction (ppm) Rh: 0 ppm

## CCCCC(CC)COP(=O)(O)CP(=O)(OCC)OCC(CC)CCCC (centres unmarked) [E-3]
[1]
  Selection Ratio: 19
  Extracted Metal Ions Kind: Co, Ni
  Extracted Metal Ions Maximum Amount Extracted: Co
[3]
  Selection Ratio: 10
  extraction of the metal ions extracted in the maximum amount (Rh ions) from the water phase to the oil phase: substantially in the entire amount
  Metal Ion Concentration in Water Phase after Extraction (ppm) Pd: 13,500 ppm
  Metal Ion Concentration in Water Phase after Extraction (ppm) Rh: 0 ppm

## CCCCC(CC)CC(CC(CC)CCCC)(C(=O)O)C(=O)O (centres unmarked) [E-4]
[1]
  Selection Ratio: 1.4
  Extracted Metal Ions Kind: Co, Ni
  Extracted Metal Ions Maximum Amount Extracted: Co

## CCCCC(CC)COP(=O)(O)CCP(=O)(O)OCC(CC)CCCC (centres unmarked) [E-5]
[1]
  Selection Ratio: 1.9
  Extracted Metal Ions Kind: Co, Ni
  Extracted Metal Ions Maximum Amount Extracted: Co

## CCCCCCCCOP(=S)(S)CP(=S)(S)OCCCCCCCC (centres unmarked) [E-6]
[1]
  Selection Ratio: 1.8
  Extracted Metal Ions Kind: Co, Ni
  Extracted Metal Ions Maximum Amount Extracted: Co

## CCCCC(CC)COP(=O)(CP(=O)(OCC)OCC(CC)CCCC)OCC (centres unmarked) [E-7]
[1]
  metal ions of aqueous solution (W1) extracted to the oil phase: cannot be extracted
  Extracted Metal Ions Kind: None
  Extracted Metal Ions Maximum Amount Extracted: None

## CCCCC(CC)COP(=O)(O)C(C)(O)P(=O)(O)OCC(CC)CCCC (centres unmarked) [E-8]
[1]
  Selection Ratio: 1.4
  Extracted Metal Ions Kind: Co, Ni
  Extracted Metal Ions Maximum Amount Extracted: Co

## CCCCC(CC)COP(=O)(O)CC(CC)CCCC (centres unmarked) [PC-88A, mono-2-ethylhexyl (2-Ethylhexyl)phosphonate, reference compound]
[1]
  Selection Ratio: 100
  metal ions of aqueous solution (W1) extracted to the oil phase: only Co ions
  Extracted Metal Ions Kind: Co
  Extracted Metal Ions Maximum Amount Extracted: Co

## Versatic acid 10 [VA-10, reference compound]
[1]
  Selection Ratio: 100
  metal ions of aqueous solution (W1) extracted to the oil phase: only Co ions
  Extracted Metal Ions Kind: Co
